PubChem BioAssay AID1259327 – Drosophila RNAi Screening Center, 2017
The whole screen tested about 3,100 reagents; below is a random part of them. 378 of them (12%) count as active. 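Hits include both directions; z-score sign shows ATP rise or fall; raw luminescence values are not plate-normalised.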 A plus sign joins genes that one reagent is predicted to hit. Not stated in the record: the amount of reagent.

- Assay: 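Knock-downs altering cellular ATP with no metal added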
- System: Drosophila S2R+ cells
- Reagents: long dsRNA against Drosophila genes
- Time to read-out: 5 days (water added on day 4, read one day later)
- Conditions: water added as vehicle, no metal, one day before read-out
- Measured: 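Luciferase ATP signal per well, normalised to plate mean, duplicate average converted to z-score across plates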
- Scale: ATP z-score: higher = more total ATP than typical wells; ATP luminescence: higher = more total ATP
- Rule for the call: 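a hit is any knock-down whose absolute ATP z-score is greater than 1.5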
- Meaning of the calls: active = hit: ATP up or down; inactive = no clear ATP change

gene knocked down | DRSC id | ATP z-score, duplicate mean | ATP luminescence, replicate 1 (RLU) | ATP luminescence, replicate 2 (RLU) | activity call
CG12990 (GeneID 32747) | DRSC19510 | -0.114 | 7.02e5 | 7.60e5 | inactive
hbt + CG43779 | DRSC23270 | 0.183 | 5.65e5 | 6.26e5 | inactive
hbt + CG43779 | DRSC39693 | 0.782 | 5.77e5 | 4.57e5 | inactive
Syb (GeneID 36080) | DRSC07559 | -2.4 | 4.08e5 | 5.42e5 | active
Syb (GeneID 36080) | DRSC25904 | -0.433 | 7.39e5 | 8.54e5 | inactive
Der-1 (GeneID 33369) | DRSC00301 | -0.528 | 4.55e5 | 4.28e5 | inactive
Der-1 (GeneID 33369) | DRSC39555 | -0.182 | 3.82e5 | 5.27e5 | inactive
PK2-R1 (GeneID 41639) | DRSC16447 | -0.114 | 2.98e5 | 7.39e5 | inactive
PK2-R1 (GeneID 41639) | DRSC24363 | -0.429 | 7.59e5 | 8.36e5 | inactive
RYa-R (GeneID 43253) | DRSC16757 | -0.724 | 6.42e5 | 6.20e5 | inactive
Spase22-23 (GeneID 42885) | DRSC15857 | -0.552 | 7.00e5 | 6.64e5 | inactive
CG31689 (GeneID 326154) | DRSC00734 | -2.44 | 4.55e5 | 4.52e5 | active
CG31689 (GeneID 326154) | DRSC24715 | -0.154 | 8.48e5 | 7.64e5 | inactive
CG4313 (GeneID 31169) | DRSC18514 | -0.338 | 6.90e5 | 6.52e5 | inactive
CG4313 (GeneID 31169) | DRSC24627 | 0.175 | 9.33e5 | 7.63e5 | inactive
CG43693 (GeneID 39231) | DRSC09086 | -1.28 | 5.97e5 | 6.09e5 | inactive
CG43693 (GeneID 39231) | DRSC10625 | -0.0824 | 7.58e5 | 6.86e5 | inactive
Ir47a (GeneID 36095) | DRSC06215 | 1.55 | 6.67e5 | 8.53e5 | active
Dh44-R1 (GeneID 36601) | DRSC07172 | -0.164 | 6.70e5 | 7.59e5 | inactive
Dh44-R1 (GeneID 36601) | DRSC28984 | -0.504 | 6.63e5 | 8.51e5 | inactive
CG8925 (GeneID 41963) | DRSC16455 | 1.47 | 4.08e5 | 8.13e5 | inactive
CG8925 (GeneID 41963) | DRSC16457 | -0.0405 | 7.33e5 | 7.43e5 | inactive
slv (GeneID 35773) | DRSC07685 | -0.844 | 5.46e5 | 5.41e5 | inactive
Nup62 (GeneID 36830) | DRSC06970 | -2.36 | 4.17e5 | 5.43e5 | active
C1GalTA (GeneID 34215) | DRSC03246 | 1.14 | 4.65e5 | 6.60e5 | inactive
GABA-B-R2 (GeneID 42561) | DRSC28127 | 1.73 | 1.04e6 | 1.06e6 | active
GABA-B-R2 (GeneID 42561) | DRSC39461 | -2.05 | 3.24e5 | 3.10e5 | active
Gr85a (GeneID 117475) | DRSC12760 | -0.911 | 2.60e5 | 6.59e5 | inactive
Gr85a (GeneID 117475) | DRSC39653 | 0.0706 | 4.55e5 | 4.85e5 | inactive

4 entries already listed, arranged by “ATP luminescence, replicate 1 (RLU)”, high to low:
gene knocked down | DRSC id | ATP z-score, duplicate mean | ATP luminescence, replicate 1 (RLU) | ATP luminescence, replicate 2 (RLU) | activity call
CG12990 (GeneID 32747) | DRSC19510 | -0.114 | 7.02e5 | 7.60e5 | inactive
hbt + CG43779 | DRSC39693 | 0.782 | 5.77e5 | 4.57e5 | inactive
hbt + CG43779 | DRSC23270 | 0.183 | 5.65e5 | 6.26e5 | inactive
Syb (GeneID 36080) | DRSC07559 | -2.4 | 4.08e5 | 5.42e5 | active
